Source: the supplement of paper PMC10849652
The other results are listed elsewhere or left out. Residues, ends and D or L forms follow the SMILES beside them. *: point of attachment. Cbz = O=C(OCc1ccccc1)*

Amino acid sequences for entries named in this document (tags omitted). A change or cut given only in a name is not applied to a line headed by its entry.
UniProt Q16610: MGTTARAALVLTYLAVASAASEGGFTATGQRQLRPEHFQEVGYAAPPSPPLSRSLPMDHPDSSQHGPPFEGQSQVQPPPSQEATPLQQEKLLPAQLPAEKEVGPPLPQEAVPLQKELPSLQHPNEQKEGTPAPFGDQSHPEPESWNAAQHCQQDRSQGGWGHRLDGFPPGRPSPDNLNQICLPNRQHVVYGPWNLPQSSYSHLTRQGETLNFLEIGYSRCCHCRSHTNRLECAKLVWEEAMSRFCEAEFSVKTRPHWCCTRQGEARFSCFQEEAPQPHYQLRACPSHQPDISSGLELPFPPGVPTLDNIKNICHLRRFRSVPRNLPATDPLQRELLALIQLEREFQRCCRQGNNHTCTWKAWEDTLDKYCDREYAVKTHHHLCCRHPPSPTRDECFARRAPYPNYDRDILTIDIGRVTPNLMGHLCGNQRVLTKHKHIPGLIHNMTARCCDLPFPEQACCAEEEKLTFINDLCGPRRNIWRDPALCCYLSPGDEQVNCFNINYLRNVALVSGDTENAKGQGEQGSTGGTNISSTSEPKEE
UniProt Q8IXB1: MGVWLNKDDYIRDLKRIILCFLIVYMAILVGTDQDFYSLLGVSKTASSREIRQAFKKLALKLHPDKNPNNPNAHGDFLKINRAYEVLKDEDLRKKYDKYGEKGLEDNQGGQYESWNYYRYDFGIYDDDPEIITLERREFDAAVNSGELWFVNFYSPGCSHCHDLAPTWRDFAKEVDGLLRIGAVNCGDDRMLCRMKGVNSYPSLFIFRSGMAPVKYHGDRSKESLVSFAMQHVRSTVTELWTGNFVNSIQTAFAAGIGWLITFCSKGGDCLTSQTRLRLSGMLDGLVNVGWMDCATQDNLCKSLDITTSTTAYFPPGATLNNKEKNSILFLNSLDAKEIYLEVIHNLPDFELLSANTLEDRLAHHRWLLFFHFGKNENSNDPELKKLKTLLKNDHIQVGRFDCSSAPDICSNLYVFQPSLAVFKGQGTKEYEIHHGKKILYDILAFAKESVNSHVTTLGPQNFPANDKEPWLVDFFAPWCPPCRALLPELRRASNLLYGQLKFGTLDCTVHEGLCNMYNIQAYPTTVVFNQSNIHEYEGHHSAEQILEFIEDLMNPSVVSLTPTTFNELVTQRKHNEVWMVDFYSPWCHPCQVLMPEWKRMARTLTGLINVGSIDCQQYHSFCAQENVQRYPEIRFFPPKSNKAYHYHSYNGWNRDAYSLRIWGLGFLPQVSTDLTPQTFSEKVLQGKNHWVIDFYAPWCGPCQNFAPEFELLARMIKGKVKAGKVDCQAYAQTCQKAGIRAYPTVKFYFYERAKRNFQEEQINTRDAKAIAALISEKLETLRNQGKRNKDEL
UniProt O00115: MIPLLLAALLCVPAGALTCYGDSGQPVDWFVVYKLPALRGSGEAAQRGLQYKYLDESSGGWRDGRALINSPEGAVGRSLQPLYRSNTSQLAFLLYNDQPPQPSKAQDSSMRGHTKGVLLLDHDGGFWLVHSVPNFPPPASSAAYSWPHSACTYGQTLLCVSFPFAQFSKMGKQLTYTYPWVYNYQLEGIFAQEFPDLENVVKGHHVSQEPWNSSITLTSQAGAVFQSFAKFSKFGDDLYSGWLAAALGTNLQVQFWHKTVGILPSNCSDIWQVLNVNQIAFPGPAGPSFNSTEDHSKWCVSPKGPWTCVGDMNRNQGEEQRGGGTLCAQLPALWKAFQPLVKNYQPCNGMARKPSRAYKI
UniProt Q92785, whole entry, looked up: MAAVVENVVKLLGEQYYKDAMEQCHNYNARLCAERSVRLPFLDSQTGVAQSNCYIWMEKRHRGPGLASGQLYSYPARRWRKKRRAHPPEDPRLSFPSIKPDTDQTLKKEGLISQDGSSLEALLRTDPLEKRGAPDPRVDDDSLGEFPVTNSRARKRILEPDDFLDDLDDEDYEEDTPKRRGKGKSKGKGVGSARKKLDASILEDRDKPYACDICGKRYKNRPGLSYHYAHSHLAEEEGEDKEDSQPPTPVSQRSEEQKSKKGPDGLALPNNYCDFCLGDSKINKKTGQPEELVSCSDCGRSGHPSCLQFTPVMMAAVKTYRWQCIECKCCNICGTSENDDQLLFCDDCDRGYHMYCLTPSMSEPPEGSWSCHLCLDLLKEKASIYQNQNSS
UniProt O00429, whole entry, looked up: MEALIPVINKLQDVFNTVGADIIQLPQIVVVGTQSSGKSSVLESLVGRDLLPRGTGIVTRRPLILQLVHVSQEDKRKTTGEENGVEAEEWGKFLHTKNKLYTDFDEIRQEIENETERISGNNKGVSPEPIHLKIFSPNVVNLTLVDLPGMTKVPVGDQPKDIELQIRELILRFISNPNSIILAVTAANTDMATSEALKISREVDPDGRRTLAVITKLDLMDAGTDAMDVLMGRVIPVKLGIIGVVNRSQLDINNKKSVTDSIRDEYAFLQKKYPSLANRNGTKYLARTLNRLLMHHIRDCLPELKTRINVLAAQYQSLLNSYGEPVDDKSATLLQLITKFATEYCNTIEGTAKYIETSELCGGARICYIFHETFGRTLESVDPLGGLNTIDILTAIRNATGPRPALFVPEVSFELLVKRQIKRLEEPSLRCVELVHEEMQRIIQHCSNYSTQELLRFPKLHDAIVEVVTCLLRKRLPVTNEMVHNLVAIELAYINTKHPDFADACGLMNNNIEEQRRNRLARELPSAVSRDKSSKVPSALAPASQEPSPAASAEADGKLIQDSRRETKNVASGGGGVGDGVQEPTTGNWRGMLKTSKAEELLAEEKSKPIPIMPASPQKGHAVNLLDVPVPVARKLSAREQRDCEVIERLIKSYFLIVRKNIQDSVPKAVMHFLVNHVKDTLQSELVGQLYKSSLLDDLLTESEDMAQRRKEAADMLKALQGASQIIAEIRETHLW
UniProt Q9UBS4: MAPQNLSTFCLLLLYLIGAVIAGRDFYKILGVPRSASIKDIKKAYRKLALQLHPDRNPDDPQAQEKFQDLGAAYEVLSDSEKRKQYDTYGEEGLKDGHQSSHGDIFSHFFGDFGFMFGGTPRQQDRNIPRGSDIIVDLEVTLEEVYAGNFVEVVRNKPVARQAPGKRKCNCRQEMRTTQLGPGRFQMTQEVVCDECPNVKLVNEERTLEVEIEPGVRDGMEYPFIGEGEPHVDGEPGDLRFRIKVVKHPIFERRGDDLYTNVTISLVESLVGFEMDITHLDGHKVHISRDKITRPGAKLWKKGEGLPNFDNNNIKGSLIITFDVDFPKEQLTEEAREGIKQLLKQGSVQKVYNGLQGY
UniProt Q9NP97, whole entry, looked up: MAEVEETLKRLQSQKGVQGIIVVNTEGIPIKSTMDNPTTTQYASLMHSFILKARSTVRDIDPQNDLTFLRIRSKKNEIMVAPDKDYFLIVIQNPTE
UniProt Q9H3H5: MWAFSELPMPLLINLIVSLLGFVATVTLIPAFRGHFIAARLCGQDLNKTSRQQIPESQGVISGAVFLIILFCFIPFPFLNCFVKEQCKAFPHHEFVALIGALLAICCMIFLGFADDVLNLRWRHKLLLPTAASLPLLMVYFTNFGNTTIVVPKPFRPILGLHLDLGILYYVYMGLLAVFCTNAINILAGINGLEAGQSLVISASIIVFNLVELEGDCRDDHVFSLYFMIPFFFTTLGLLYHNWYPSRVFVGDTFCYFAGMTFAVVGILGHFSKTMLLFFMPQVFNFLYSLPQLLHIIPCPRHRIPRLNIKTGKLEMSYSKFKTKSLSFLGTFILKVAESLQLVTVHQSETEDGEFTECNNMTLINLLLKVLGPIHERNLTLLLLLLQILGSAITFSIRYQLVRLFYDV
UniProt P60981: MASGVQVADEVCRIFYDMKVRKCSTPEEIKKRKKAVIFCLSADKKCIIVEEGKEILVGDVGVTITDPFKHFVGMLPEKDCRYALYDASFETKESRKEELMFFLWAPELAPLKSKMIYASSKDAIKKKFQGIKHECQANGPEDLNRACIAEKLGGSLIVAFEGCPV
UniProt Q14919: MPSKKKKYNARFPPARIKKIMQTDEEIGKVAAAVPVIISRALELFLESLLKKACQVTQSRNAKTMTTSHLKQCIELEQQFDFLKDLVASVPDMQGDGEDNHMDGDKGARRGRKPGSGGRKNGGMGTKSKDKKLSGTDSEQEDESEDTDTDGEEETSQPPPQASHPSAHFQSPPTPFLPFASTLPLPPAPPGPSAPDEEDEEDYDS
UniProt Q9C005, whole entry, looked up: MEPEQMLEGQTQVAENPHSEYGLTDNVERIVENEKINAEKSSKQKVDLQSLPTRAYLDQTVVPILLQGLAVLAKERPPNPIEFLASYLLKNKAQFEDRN
UniProt O95620: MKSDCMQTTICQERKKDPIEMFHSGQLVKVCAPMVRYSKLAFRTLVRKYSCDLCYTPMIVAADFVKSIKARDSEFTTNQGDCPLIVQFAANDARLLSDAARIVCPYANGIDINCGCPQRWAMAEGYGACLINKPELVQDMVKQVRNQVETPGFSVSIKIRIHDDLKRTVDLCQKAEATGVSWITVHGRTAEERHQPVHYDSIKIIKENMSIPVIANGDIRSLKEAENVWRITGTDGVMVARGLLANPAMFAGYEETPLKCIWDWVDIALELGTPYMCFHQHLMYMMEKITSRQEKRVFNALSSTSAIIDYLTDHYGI
UniProt O00559: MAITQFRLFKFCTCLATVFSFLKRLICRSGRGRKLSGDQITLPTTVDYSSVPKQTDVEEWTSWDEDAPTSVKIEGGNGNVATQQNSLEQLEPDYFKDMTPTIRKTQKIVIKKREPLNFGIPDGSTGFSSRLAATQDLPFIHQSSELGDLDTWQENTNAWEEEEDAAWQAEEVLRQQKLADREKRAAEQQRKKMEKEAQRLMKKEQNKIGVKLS
UniProt O43598: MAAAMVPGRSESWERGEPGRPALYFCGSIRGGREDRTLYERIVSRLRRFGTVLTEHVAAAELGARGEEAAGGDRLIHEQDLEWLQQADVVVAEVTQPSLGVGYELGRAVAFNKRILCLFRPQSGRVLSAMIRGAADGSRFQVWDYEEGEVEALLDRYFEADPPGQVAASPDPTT
UniProt Q9UKB3: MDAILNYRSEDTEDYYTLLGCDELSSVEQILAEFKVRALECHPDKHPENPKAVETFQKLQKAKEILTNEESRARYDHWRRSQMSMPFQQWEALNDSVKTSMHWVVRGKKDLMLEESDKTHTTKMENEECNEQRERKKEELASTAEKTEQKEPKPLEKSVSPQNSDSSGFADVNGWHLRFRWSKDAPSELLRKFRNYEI
UniProt Q5F1R6: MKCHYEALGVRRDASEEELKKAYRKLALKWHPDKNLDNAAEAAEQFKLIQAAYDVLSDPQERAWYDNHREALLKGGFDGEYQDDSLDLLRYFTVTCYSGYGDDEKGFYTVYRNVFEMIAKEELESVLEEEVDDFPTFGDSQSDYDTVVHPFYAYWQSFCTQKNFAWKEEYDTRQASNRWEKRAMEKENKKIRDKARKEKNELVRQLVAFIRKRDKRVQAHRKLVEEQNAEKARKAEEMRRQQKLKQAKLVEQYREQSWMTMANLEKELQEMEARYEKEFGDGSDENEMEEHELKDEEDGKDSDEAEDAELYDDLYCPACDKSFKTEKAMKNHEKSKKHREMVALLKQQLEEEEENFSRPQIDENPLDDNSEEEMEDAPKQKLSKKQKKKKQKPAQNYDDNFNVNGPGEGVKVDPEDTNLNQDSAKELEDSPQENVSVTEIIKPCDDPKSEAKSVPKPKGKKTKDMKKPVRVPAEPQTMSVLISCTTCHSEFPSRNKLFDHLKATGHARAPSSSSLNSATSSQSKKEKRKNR

Legend:
Assay in all cases: log2 fold change, soluble protein after heating vs DMSO (PISA); higher = thermal stabilisation; K562 cells, 10 uM, 30 min; active = over 0.2 and 3.5 SD of the protein, either way, in both replicates (recomputed)
[1] = compound: C1COCCN1CCN2C3=CC=CC=C3N=C2NC(=O)C4=CC(=CC=C4)[N+](=O)[O-] [IRAK-1-4 Inhibitor I]
Outline: (§1)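 Thermal stability values are relative to control samples and come from duplicates. They are expressed as log2 fold changes. For measurement, K562 cells (2×10^6 cells/mL) received 10 μM compound for 30 min, and aliquots were heated for 3 min over 48°C-58°C, pooled, and extracted at 4°C in PBS with 0.5% NP-40. Soluble protein, the supernatant after 21,000xg for 90 min, was quantified by TMTpro 16plex LC-MS/MS with equalised channel sums.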

[2] = compound: C=CC(=O)N1CCC[C@@H](n2nc(-c3ccc(Oc4ccccc4)cc3)c3c(N)ncnc32)C1 [ibrutinib]
Outline: as §1

[3] = compound: CC(=O)c1cnc2ccc(-c3cc(Cl)c(O)c(Cl)c3)nc2c1N[C@H]1CC[C@H](CN(C)C)CC1
Outline: as §1

[4] = compound: CC(C)(C)Cn1c(N)nc2ccc(-c3[nH]c(C(C)(C)C)nc3-c3ccc(F)cc3)nc21 [ralimetinib]
Outline: as §1

[5] = compound: CC(C)(O)CC(=O)NCCn1ccc2ncnc(Nc3ccc(Oc4cccc(C(F)(F)F)c4)c(Cl)c3)c21
Outline: as §1

[6] = compound: CC(C)C1=C2N=C(C=C(N2N=C1)NCC3=CC=CC=C3)NCCCCCCN
Outline: as §1

[7] = compound: CC(C)C[C@@H](C=O)NC(=O)[C@H](CC(C)C)NC(=O)[C@H](CC(C)C)NC(=O)OCc1ccccc1
Outline: as §1

[8] = compound: CC(C)N(C[C@H]1O[C@@H](n2cnc3c(N)ncnc32)[C@H](O)[C@@H]1O)[C@H]1C[C@@H](CCc2nc3cc(C(C)(C)C)ccc3[nH]2)C1 [pinometostat]
Outline: as §1

[9] = compound: CC1=C(C(CC(=O)N1)C2=CC=C(C=C2)C(F)(F)F)C(=O)NC3=C(C=C4C(=C3)C=NN4)F
Outline: as §1

[10] = compound: CC1=C(C2=C(C=C1)C(=O)C3=CC=CC=C3N2CCCN)C
Outline: as §1

[11] = compound: CC1=C(C=C(C=C1)NC(=O)C2=CC(=CC=C2)C(C)(C)C#N)NC3=CC4=C(C=C3)N=CN(C4=O)C
Outline: as §1

[12] = compound: CC1=C(C=C(C=C1)NC(=O)C2=CC(=CC=C2)N(C)C)NC(=O)C3=CC=C(C=C3)O
Outline: as §1

[13] = compound: CC1=CC=C(C=C1)SC2=C3C=C(SC3=CN=C2)C(=O)N
Outline: as §1

[14] = compound: CC1=NC(=CC=C1)C2=C(N=C(N2)C(C)(C)C)C3=CC4=NC=CN=C4C=C3
Outline: as §1

[15] = compound: CCCCN(Cc1ccc(C(=O)NO)cc1)C(=O)Nc1ccccc1 [Nexturastat A]
Outline: as §1

[16] = compound: CCCS(=O)(=O)Nc1ccc(F)c(C(=O)c2c[nH]c3ncc(-c4ccc(Cl)cc4)cc23)c1F [vemurafenib]
Outline: as §1

[17] = compound: CCCS(=O)(=O)Nc1ccc(F)c(C(=O)c2c[nH]c3ncc(Cl)cc23)c1F
Outline: as §1

[18] = compound: CCCc1cc(C)[nH]c(=O)c1CNC(=O)c1cc(-c2ccnc(N3CCN(C)CC3)c2)cc2c1cnn2C(C)C
Outline: as §1

[19] = compound: CCN(CC)Cc1ccc2cc(COC(=O)Nc3ccc(C(=O)NO)cc3)ccc2c1 [givinostat]
Outline: as §1

[20] = compound: CCN(CCCOc1ccc2c(Nc3cc(CC(=O)Nc4cccc(F)c4)[nH]n3)ncnc2c1)CCOP(=O)(O)O [barasertib]
Outline: as §1

Measured: log2 fold change

ECM1 isoform 4 (UniProt Q16610)
inactive: [1] -0.047 | [2] -0.032 | [3] -0.03 | [4] 0.027 | [5] -0.036 | [6] 0.027 | [7] 0.037 | [8] 0.023 | [9] 0.019 | [10] -0.033 | [11] 0.027 | [12] -0.018 | [13] -0.029 | [14] 0.021 | [15] -0.016 | [16] 0.061 | [17] -0.075 | [18] 0.015 | [19] -0.014 | [20] -0.018

DNAJC10 (UniProt Q8IXB1)
inactive: [1] -0.038 | [2] 0.022 | [3] 0 | [4] 0.134 | [5] 0.08 | [6] 0.044 | [7] -0.015 | [8] 0.049 | [9] -0.009 | [10] -0.011 | [11] 0.03 | [12] 0.016 | [13] -0.042 | [14] -0.023 | [15] 0.054 | [16] -0.021 | [17] 0.035 | [18] 0.193 | [19] 0.013 | [20] -0.017

DNASE2 (UniProt O00115)
inactive: [1] 0.022 | [2] 0.045 | [3] 0.015 | [4] -0.083 | [5] -0.02 | [6] -0.012 | [7] -0.047 | [8] -0.013 | [9] 0.018 | [10] -0.067 | [11] -0.016 | [12] 0.004 | [13] -0.003 | [14] 0.033 | [15] -0.041 | [16] 0.05 | [17] -0.062 | [18] -0.035 | [19] -0.077 | [20] -0.034

DPF2 (UniProt Q92785)
inactive: [1] -0.041 | [2] -0.013 | [3] -0.052 | [4] 0.089 | [5] 0.02 | [6] 0.024 | [7] 0.04 | [8] -0.075 | [9] 0.061 | [10] 0.013 | [11] -0.093 | [12] 0.033 | [13] -0.003 | [14] 0.043 | [15] 0.1 | [16] -0.035 | [17] -0.006 | [18] 0.032 | [19] 0.042 | [20] -0.015

DNM1L isoform 6 (UniProt O00429)
inactive: [1] 0.042 | [2] -0.017 | [3] -0.001 | [4] -0.037 | [5] -0.028 | [6] -0.034 | [7] -0.01 | [8] -0.001 | [9] 0 | [10] 0.092 | [11] -0.022 | [12] 0.005 | [13] 0.041 | [14] 0.015 | [15] -0.045 | [16] -0.022 | [17] 0.043 | [18] -0.018 | [19] 0.023 | [20] 0.029

Random excerpt: two entries already listed
DNAJC10 (UniProt Q8IXB1)
inactive: [1] -0.038 | [2] 0.022 | [3] 0 | [4] 0.134 | [5] 0.08 | [6] 0.044 | [7] -0.015 | [8] 0.049 | [9] -0.009 | [10] -0.011 | [11] 0.03 | [12] 0.016 | [13] -0.042 | [14] -0.023 | [15] 0.054 | [16] -0.021 | [17] 0.035 | [18] 0.193 | [19] 0.013 | [20] -0.017

DPF2 (UniProt Q92785)
inactive: [1] -0.041 | [2] -0.013 | [3] -0.052 | [4] 0.089 | [5] 0.02 | [6] 0.024 | [7] 0.04 | [8] -0.075 | [9] 0.061 | [10] 0.013 | [11] -0.093 | [12] 0.033 | [13] -0.003 | [14] 0.043 | [15] 0.1 | [16] -0.035 | [17] -0.006 | [18] 0.032 | [19] 0.042 | [20] -0.015

Additional records follow.

DNAJB11 (UniProt Q9UBS4)
inactive: [1] 0.008 | [2] -0.001 | [3] -0.017 | [4] -0.027 | [5] 0.046 | [6] -0.022 | [7] -0.024 | [8] -0.01 | [9] -0.015 | [10] -0.013 | [11] -0.052 | [12] -0.001 | [13] -0.019 | [14] -0.012 | [15] -0.013 | [16] 0.008 | [17] -0.006 | [18] -0.029 | [19] -0.001 | [20] 0.007

DYNLRB1 (UniProt Q9NP97)
inactive: [1] 0.003 | [2] -0.001 | [3] 0.023 | [4] -0.065 | [5] -0.153 | [6] 0.057 | [7] -0.008 | [8] -0.046 | [9] 0.013 | [10] 0.081 | [11] -0.027 | [12] -0.03 | [13] -0.027 | [14] -0.006 | [15] -0.044 | [16] -0.063 | [17] -0.036 | [18] -0.004 | [19] -0.053 | [20] 0.045

DPAGT1 (UniProt Q9H3H5)
inactive: [1] 0 | [2] -0.061 | [3] 0.061 | [4] -0.035 | [5] -0.085 | [6] 0.056 | [7] -0.104 | [8] -0.105 | [9] 0 | [10] 0.078 | [11] 0.083 | [12] 0.01 | [13] 0.076 | [14] 0.065 | [15] -0.003 | [16] 0.153 | [17] -0.049 | [18] -0.034 | [19] -0.035 | [20] 0.008

DSTN (UniProt P60981)
inactive: [1] 0.027 | [2] -0.007 | [3] 0.061 | [4] -0.016 | [5] 0.015 | [6] -0.042 | [7] 0.024 | [8] -0.028 | [9] -0.013 | [10] -0.021 | [11] 0.018 | [12] -0.029 | [13] 0.002 | [14] 0.025 | [15] -0.059 | [16] 0.027 | [17] 0.002 | [18] 0.001 | [19] -0.003 | [20] 0.018

DRAP1 isoform 2 (UniProt Q14919)
inactive: [1] 0.019 | [2] 0.001 | [3] 0.012 | [4] -0.01 | [5] 0.02 | [6] 0.049 | [7] 0.002 | [8] -0.036 | [9] -0.022 | [10] -0.03 | [11] -0.005 | [12] 0 | [13] 0.005 | [14] -0.004 | [15] -0.07 | [16] -0.005 | [17] 0 | [18] -0.009 | [19] -0.026 | [20] 0

DPY30 (UniProt Q9C005)
inactive: [1] 0.09 | [2] 0 | [3] -0.001 | [4] 0.076 | [5] -0.073 | [6] 0.242 | [7] -0.341 | [8] -0.115 | [9] 0.009 | [10] -0.021 | [11] -0.042 | [12] -0.029 | [13] -0.1 | [14] 0.36 | [15] 0.138 | [16] 0.348 | [17] 0.15 | [18] 0.01 | [19] -0.036 | [20] -0.023

DUS4L (UniProt O95620)
inactive: [1] 0.042 | [2] 0 | [3] -0.028 | [4] -0.112 | [5] 0.057 | [6] 0.115 | [7] -0.021 | [8] 0.004 | [9] 0.014 | [10] 0.018 | [11] -0.045 | [12] 0.036 | [13] -0.048 | [14] -0.009 | [15] 0.187 | [16] -0.034 | [17] -0.038 | [18] -0.097 | [19] 0.03 | [20] -0.019

EBAG9 isoform 2 (UniProt O00559)
inactive: [1] 0.009 | [2] 0.045 | [3] 0.046 | [4] 0.043 | [5] 0.063 | [6] 0.058 | [7] 0.08 | [8] -0.028 | [9] -0.006 | [10] 0.017 | [11] 0.03 | [12] -0.013 | [13] 0.019 | [14] 0.036 | [15] 0.045 | [16] -0.022 | [17] 0.038 | [18] -0.02 | [19] -0.026 | [20] -0.028

DNPH1 (UniProt O43598)
inactive: [1] 0.041 | [2] 0.06 | [3] -0.019 | [4] -0.027 | [5] 0 | [6] 0.063 | [7] -0.003 | [8] -0.086 | [9] 0.02 | [10] -0.005 | [11] -0.042 | [12] -0.024 | [13] 0.015 | [14] 0.099 | [15] 0.057 | [16] -0.012 | [17] 0.01 | [18] -0.017 | [19] -0.002 | [20] -0.005

DNAJC12 (UniProt Q9UKB3)
inactive: [1] 0.034 | [2] -0.028 | [3] 0.009 | [4] 0.103 | [5] 0.005 | [6] -0.008 | [7] -0.046 | [8] -0.04 | [9] 0.001 | [10] -0.032 | [11] 0.033 | [12] -0.003 | [13] 0.055 | [14] 0.025 | [15] -0.072 | [16] -0.022 | [17] -0.017 | [18] -0.066 | [19] -0.02 | [20] 0.024

DNAJC21 isoform 3 (UniProt Q5F1R6)
inactive: [1] -0.049 | [2] -0.023 | [3] -0.008 | [4] 0.136 | [5] 0.003 | [6] -0.054 | [7] 0.143 | [8] 0.112 | [9] -0.028 | [10] -0.116 | [11] 0.109 | [12] -0.004 | [13] -0.066 | [14] -0.025 | [15] 0.204 | [16] 0.106 | [17] 0.05 | [18] -0.063 | [19] 0.083 | [20] 0.002
